Results taken from US20170000132A1, “BENZOXABOROLE FUNGICIDES” (SYNGENTA PARTICIPATIONS AG, priority 2013, published 2017).
Some of these results come from one statement about several compounds together. At least one compound was matched to its structure with a doubt left.

Experiments:
Assay type in all cases: cell-based
[1] = tested on: Glomerella lagenarium (Colletotrichum lagenarium); test: Glomerella lagenarium / liquid culture (anthracnose); conditions: 200 ppm, PDB, 3-4 days after application
Gaeumannomyces graminis = Gaeumannomyces graminis / liquid culture (take-all of cereals); conditions: 200 ppm, PDB, 4-5 days after application
[2] = tested on: Monographella nivalis (Microdochium nivale); test: Monographella nivalis / liquid culture (foot rot cereals); conditions: 200 ppm, PDB, 4-5 days after application
[3] = tested on: Mycosphaerella graminicola (Septoria tritici); test: Mycosphaerella graminicola / liquid culture (Septoria blotch); conditions: 200 ppm, PDB, 4-5 days after application
Pythium ultimum = Pythium ultimum / liquid culture (seedling damping off); conditions: 200 ppm, potato dextrose broth, 2-3 days after application

Measured: disease control (inhibition of growth, photometric)

OB1OCc2cc(C=NOCc3ccc(Cl)cc3)ccc21 (single isomer, unassigned) [Compound 397]
not listed: Pythium ultimum
at least 80%: all other assays above

COC(=O)C(Cc1ccccc1)ON=Cc1ccc2c(c1)COB2O (single isomer, unassigned) [Compound 408]
at least 80%: [2] | [3]

CC(Cl)=CCON=Cc1cc2c(cc1Cl)COB2O [Compound 49]
not listed: Pythium ultimum
at least 80%: all other assays above

CC(ON=Cc1ccc2c(c1)COB2O)c1ccc(Cl)c(Cl)c1 (single isomer, unassigned) [Compound 426]
not listed: Pythium ultimum
at least 80%: all other assays above

CON=Cc1cccc2c1COB2O (single isomer, unassigned) [Compound 433]
at least 80%: [2] | Pythium ultimum | [3]

CC(ON=Cc1cc2c(cc1F)COB2O)c1ccc(Cl)c(Cl)c1 (single isomer, unassigned) [Compound 152]
not listed: Pythium ultimum
at least 80%: all other assays above

CCOC(=O)C(C)ON=Cc1cccc2c1B(O)OC2 (single isomer, unassigned) [Compound 337]
not listed: [3]
at least 80%: all other assays above

CON=Cc1ccc2c(c1)COB2O (single isomer, unassigned) [Compound 414]
not listed: Gaeumannomyces graminis
at least 80%: all other assays above

OB1OCc2cc(F)cc(C=NOCc3ccc(Cl)cc3)c21 (single isomer, unassigned) [Compound 273]
not listed: [3]
at least 80%: all other assays above

CCCCCCON=Cc1ccc2c(c1)COB2O (single isomer, unassigned) [Compound 400]
at least 80%: [1] | [2] | [3]

OB1OCc2cccc(C=NOCc3c(F)c(F)c(F)c(F)c3F)c21 (single isomer, unassigned) [Compound 341]
not listed: [3]
at least 80%: all other assays above

OB1OCc2cc(F)c(C=NNc3ccc(OCc4ccc(Cl)cc4)cc3)cc21 (single isomer, unassigned) [Compound 84]
not listed: Gaeumannomyces graminis
at least 80%: all other assays above

Cc1ccc(CON=Cc2cc(Cl)cc3c2B(O)OC3)cc1 (single isomer, unassigned) [Compound 215]
not listed: [3]
at least 80%: all other assays above

OB1OCc2cc(Cl)c(C=NNc3ccc(C(F)(F)F)cc3)cc21 (single isomer, unassigned) [Compound 32]
not listed: [3]
at least 80%: all other assays above

OB1OCc2cc(F)c(C=NNc3cc(Cl)cc(Cl)c3)cc21 (single isomer, unassigned) [Compound 99]
not listed: [3]
at least 80%: all other assays above

OB1OCc2cccc(C=NOCc3ccccc3F)c21 (single isomer, unassigned) [Compound 328]
not listed: [3]
at least 80%: all other assays above

CCCCCCON=Cc1cc(Cl)cc2c1B(O)OC2 (single isomer, unassigned) [Compound 195]
not listed: [3]
at least 80%: all other assays above

CC(C#Cc1cccs1)=CCON=Cc1cccc2c1B(O)OC2 [Compound 352]
not listed: [1]
at least 80%: all other assays above

CCON=Cc1cccc2c1COB2O (single isomer, unassigned) [Compound 432]
at least 80%: [2] | Pythium ultimum | [3]

CCOC(=O)NN=Cc1cc2c(cc1Cl)COB2O (single isomer, unassigned) [Compound 13]
not listed: [3]
at least 80%: all other assays above

OB1OCc2cc(F)cc(C=NOCc3c(F)c(F)c(F)c(F)c3F)c21 (single isomer, unassigned) [Compound 285]
not listed: [3]
at least 80%: all other assays above

OB1OCc2cccc(C=NOCc3ccc(F)cc3Cl)c21 (single isomer, unassigned) [Compound 349]
not listed: [3]
at least 80%: all other assays above

OB1OCc2cc(Cl)c(C=NNc3c(Cl)cc(C(F)(F)F)cc3Cl)cc21 (single isomer, unassigned) [Compound 27]
not listed: [3]
at least 80%: all other assays above
